Assay results as given in patent US11046660B2, “Compounds and their use as PDE4 activators” (MIRONID LIMITED, priority 2016, dated 2021).
Some of these results come from one statement about several compounds together.

By UniProt entry, the sequences of proteins in these tests, tags left out. Where a name states a change or a piece, a line headed by the entry shows the natural chain unless it says otherwise.
UniProt Q07343: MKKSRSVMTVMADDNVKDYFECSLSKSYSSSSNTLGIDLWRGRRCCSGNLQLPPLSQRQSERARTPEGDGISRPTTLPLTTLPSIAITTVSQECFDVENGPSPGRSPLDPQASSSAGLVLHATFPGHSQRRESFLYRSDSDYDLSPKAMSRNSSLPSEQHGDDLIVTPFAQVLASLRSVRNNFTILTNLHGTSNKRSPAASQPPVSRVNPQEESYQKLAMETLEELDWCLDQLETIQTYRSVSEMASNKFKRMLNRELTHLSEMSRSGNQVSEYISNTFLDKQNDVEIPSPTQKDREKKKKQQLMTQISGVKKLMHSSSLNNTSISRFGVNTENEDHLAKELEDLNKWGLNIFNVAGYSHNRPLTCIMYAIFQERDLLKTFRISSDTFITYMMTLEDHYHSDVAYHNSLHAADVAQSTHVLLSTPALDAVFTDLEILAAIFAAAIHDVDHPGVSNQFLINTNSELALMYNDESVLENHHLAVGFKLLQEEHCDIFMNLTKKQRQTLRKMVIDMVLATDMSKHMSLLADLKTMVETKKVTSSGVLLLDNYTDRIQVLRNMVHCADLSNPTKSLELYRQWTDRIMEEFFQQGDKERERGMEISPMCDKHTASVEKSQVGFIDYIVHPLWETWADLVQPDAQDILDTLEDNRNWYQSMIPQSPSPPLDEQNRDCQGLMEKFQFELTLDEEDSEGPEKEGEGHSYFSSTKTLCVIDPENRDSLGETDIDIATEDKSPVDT

Molecular target: T1, full-length human PDE4B1 (Homo sapiens, UniProt Q07343)
T1 construct: stably expressed the full-length human PDE4D5, PDE4A4 and PDE4B1 long isoforms; made in house; cytosol fraction of cell lysate
Assay: PDE4B1 long form enzyme activation radio-assay (Experiment 1, Protocol A or B)
Type: biochemical
Details: protocol not stated
Description: Experiment 1: Identification of PDE4 Long Form Activators of the Present Invention Using Full-Length Human PDE4 Isoforms PDE4D5, PDE4A4, PDE4B1 and PDE4B2
HEK 293 cells were transfected with pDEST™ PDE4 expression vectors using Lipofectamine LTX/Plus reagent (Invitrogen) as outlined by the manufacturer and clonal isolates expanded to obtain cell lines that stably expressed the full-length human PDE4D5, PDE4A4 and PDE4B1 long isoforms and the full length human PDE4B2 short isoform. These were called the HEK-PDE4D5, HEK-PDE4A4, HEK-PDE4B1 and HEK-PDE4B2 cell lines, respectively.
HEK-PDE4D5 cells were seeded out in 100 mm plates and incubated at 37° C. in an atmosphere of 5% CO2, 95% air. […]
The cell lysate containing recombinant PDE4D5 was transferred into a centrifuge tube and placed into an ultracentrifuge (BECKMAN COULTER) and spun at high speed (100,000 g) for 30 minutes at 4° C. The cytosol fraction was then collected and its protein amount determined using a BCA protein assay.
PDE assays were performed using a final concentration of 10 mM Tris/5 mM MgCl2 and 1 μM [^3H]-cAMP (Perkin Elmer) plus PDE4D5 cell lysate cytosol fraction, containing over-expressed PDE4D5, with and without test compound. […] Tubes were vortexed thoroughly to mix and the recovered [^3H]-adenosine was quantified by measuring counts over 1 minute in a scintillation counter. […]

Row | Structure (SMILES) | increase in PDE4B1 activity at 10 μM
1 | Cc1nc(-c2cccnc2)nn1CC(=O)NCc1cccc(F)c1 [Example 14, N-(3-fluorobenzyl)-2-[5-methyl-3-(pyridin-3-yl)-1H-1,2,4-triazol-1-yl]acetamide] | greater than 30%
2 | O=C(Cn1ccc(-c2ccc(Cl)cc2)n1)NCc1ccccc1 [Example 15, N-benzyl-2-[3-(4-chlorophenyl)-1H-pyrazol-1-yl]acetamide] | greater than 30%
